Assay results: PubChem BioAssay AID493014 (National Center for Advancing Translational Sciences (NCATS), 2011)
“And” between values parts separate entries of the source, which are not always exact repeats. Equal values may be shown once. The list shows a part of the results. Shown are side measurements of this screen, not its main read-out; they come without a call. Compounds called inactive in the main read-out are mostly missing here. Words in brackets tell the shape of the fitted curve; partial curves, single points and poor fits give uncertain potencies.

Assay: qHTS Assay to Find Inhibitors of Chronic Active B-Cell Receptor Signaling
Conditions: ABC-DLBCL IkBa-CBG/CBR reporter, luminescence ratio (green luciferase fused to IkBa over red control in TMD8 lymphoma cells), 4 h
Outline: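 Doxycycline induced both beetle luciferases in TMD8 lymphoma cells; IKK-driven degradation limits the IkappaBalpha-fused green signal, while red luminescence normalises for cell number and nonspecific effects. Compounds tested up to 46 uM, 4 hrs.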

[1] = measured here: CBR red luminescence, cell number
[2] = measured here: IkBa-CBG green luminescence

SMILES	AC50 [1]	AC50 [2]
C=CC[C@H](CC(=O)N(CCO)Cc1ccccc1)C(=O)N[C@H](COC(=O)[C@@H](CC=C)Cc1ccc(F)cc1)C(C)(C)C	20.6 µM [falling, partial curve, poor fit]	
NC(=O)[C@@H]1[C@@H]2C(=O)N(c3ccc(F)cc3)C(=O)[C@@H]2[C@H]2C=Cc3ccccc3N21	11.2 µM [falling, single point]	
Cc1ccc2nc(/C(C#N)=C\c3ccc(OC(=O)c4cccs4)cc3)[nH]c2c1	8.91 µM [falling, partial curve, poor fit]	
CCO/C=C/C(O)(CNC(=O)c1ccc(C(C)(C)C)cc1)C(F)(F)F (stereo not given)	16.4 µM [rising, partial curve, poor fit]	
COc1ccc(CCN(C)Cc2c(O)ccc3cc(Br)ccc23)cc1OC	3.98 µM [falling, partial curve, poor fit]	
O=C(COc1ccc2c(c1)OCO2)Nc1nccs1	7.08 µM [falling, partial curve, poor fit]	
C/C(=N\Nc1ccccc1)c1cc2ccccc2oc1=O	10 µM [rising, partial curve, poor fit]	
COc1cc(/C=C/c2ccc3cccc(O)c3n2)c(Br)cc1O	3.16 µM [rising, partial curve, poor fit]	12.6 µM [falling, partial curve]
COc1ccc(-c2noc(CN(C(=O)c3ccc(OC(C)=O)cc3)C(C)C)n2)cc1OC	0.0731 µM [rising, partial curve, poor fit]	
Cc1ccccc1/C=C/c1nc2ccccc2c(=O)[nH]1	0.282 µM [falling, full curve]	
C[C@@H]1CN([C@H](C)CO)C(=O)Cc2cc(NC(=O)CCC(F)(F)F)ccc2O[C@@H]1CN(C)C(=O)Nc1ccccc1	18.4 µM [rising, single point]	
CCCCN(C)C(=O)c1cccc(OC2CCN(CC(C)(C)C)CC2)c1	0.708 µM [falling, full curve, poor fit]	
O=S(=O)(/N=C(/Nc1cc(N2CCOCC2)ncn1)c1ccc(F)cc1)c1ccccc1	1.84 µM [rising, partial curve, poor fit]	
O=C(CC12CC3CC(CC(C3)C1)C2)Nc1ccccc1N1CCOCC1	1.58 µM [rising, partial curve]	
COc1cccc(/C=N/NC(=O)c2ccccc2NC(=O)c2ccco2)c1OC	15.8 µM [falling, single point]	
C[C@H](CO)N1C[C@H](C)[C@@H](CN(C)Cc2ccc(-c3ccccc3)cc2)Oc2c(NC(=O)Cc3ccccc3)cccc2C1=O	2.31 µM [falling, full curve]	
Cc1ccc(NS(=O)(=O)c2cc([N+](=O)[O-])ccc2NNC(=S)Nc2cc(C)ccc2C)c(C)c1	20.6 µM [falling, single point]	20.6 µM [rising, single point]
CCOC(=O)C1(CCOc2ccccc2)CCN(Cc2cccc3c2OCO3)CC1	35.5 µM [falling, single point]	
O=C1CC(c2ccco2)Cc2nc(Nc3nc(-c4ccccc4)c4ccccc4n3)ncc21 (stereo not given)	10 µM [falling, partial curve, poor fit]	

SMILES	AC50 [1]	AC50 [2]
CC(C)c1cc(C(=O)N/N=C/C=C/c2ccccc2)n[nH]1	25.9 µM [rising, single point]	
CCOc1ccc(-c2n[nH]c(=S)c3ccccc23)cc1	35.5 µM [rising, single point]	
Cn1ncc2c1ncn1nc(CCc3ccccc3)nc21	0.355 µM [rising, partial curve, poor fit]	
CCC1CCC2(CC1)SCC(=O)N2c1ccccc1 (stereo not given)	6.31 µM [rising, single point]	
NC(=O)CN1C(=O)C(O)(CC(=O)/C=C\c2ccc3c(c2)OCO3)c2ccccc21 (stereo not given)	12.6 µM [falling, single point]	
CCCn1nc2cc(C(=O)NCC34CC5CC(CC(C5)C3)C4)ccc2c1OCC	12.6 µM [falling, single point]	
CC(C)n1cnc2cc(NC(=O)c3ccco3)ccc21	11.2 µM [falling, single point]	
Cn1nc(-c2ccccc2)c(C(=O)Nc2ccc(Cl)cc2)c1Cl	1.12 µM [rising, full curve, poor fit]	
O=C(OCc1c(-c2ccccc2)ncc2ccccc12)c1ccc(F)cc1	6.51 µM [falling, single point]	
O=C(O)c1ccc(NC(=O)c2ccc3c(c2)C(=O)N(c2ccccc2)C3=O)cc1	35.5 µM [falling, single point]	
O=C(c1ccc(Br)o1)N1CCN(C/C=C/c2ccccc2)CC1	3.55 µM [rising, full curve, poor fit]	
Cc1nn(C)cc1/C=C/C(=O)c1cccs1	16.4 µM [falling, partial curve]	
COc1ccc(C(=O)CSc2ccccc2C(=O)O)cc1	3.98 µM [rising, partial curve, poor fit]	
CCCCCn1nc(C(=O)N2CCc3ccccc32)c2ccccc2c1=O	29.1 µM [falling, single point]	
O=C(Nc1nccs1)C1CC(=O)N(Cc2ccco2)C1 (stereo not given)	11.2 µM [falling, single point]	
C#CCOCCOCCOCCNc1nc(N2CCN(C(=O)CCCCCCCCCCNC(=O)[C@@H](CCSC)n3cc(CCO)nn3)CC2)nc(N2CCN(C(=O)CCCCCCCCCCNC(=O)[C@H]([C@@H](C)CC)n3cc(CCCCN=C(N)N)nn3)CC2)n1	14.6 µM [rising, partial curve]	
O=[N+]([O-])c1ccc(-c2nnc(-c3ccccc3)c(NCCCO)n2)cc1	4.11 µM [falling, full curve]	
CCOc1ccccc1NC(=O)Nc1ccc2c(c1)OCO2	0.251 µM [falling, full curve, poor fit]	
O=C(c1ccc(O)cc1)c1ccc(C(=O)c2ccc(O)cc2)cc1	16.4 µM [falling, single point] and 25.1 µM [falling, single point]	

A run of entries from the list above, for reference:
SMILES	AC50 [1]	AC50 [2]
O=C(OCc1c(-c2ccccc2)ncc2ccccc12)c1ccc(F)cc1	6.51 µM [falling, single point]	
O=C(O)c1ccc(NC(=O)c2ccc3c(c2)C(=O)N(c2ccccc2)C3=O)cc1	35.5 µM [falling, single point]	
O=C(c1ccc(Br)o1)N1CCN(C/C=C/c2ccccc2)CC1	3.55 µM [rising, full curve, poor fit]	
Cc1nn(C)cc1/C=C/C(=O)c1cccs1	16.4 µM [falling, partial curve]	
COc1ccc(C(=O)CSc2ccccc2C(=O)O)cc1	3.98 µM [rising, partial curve, poor fit]	
CCCCCn1nc(C(=O)N2CCc3ccccc32)c2ccccc2c1=O	29.1 µM [falling, single point]	
O=C(Nc1nccs1)C1CC(=O)N(Cc2ccco2)C1 (stereo not given)	11.2 µM [falling, single point]	
C#CCOCCOCCOCCNc1nc(N2CCN(C(=O)CCCCCCCCCCNC(=O)[C@@H](CCSC)n3cc(CCO)nn3)CC2)nc(N2CCN(C(=O)CCCCCCCCCCNC(=O)[C@H]([C@@H](C)CC)n3cc(CCCCN=C(N)N)nn3)CC2)n1	14.6 µM [rising, partial curve]	
O=[N+]([O-])c1ccc(-c2nnc(-c3ccccc3)c(NCCCO)n2)cc1	4.11 µM [falling, full curve]	
CCOc1ccccc1NC(=O)Nc1ccc2c(c1)OCO2	0.251 µM [falling, full curve, poor fit]	
